PubChem BioAssay AID588590 (National Center for Advancing Translational Sciences (NCATS), 2011)
Out of some 390,000 compounds screened, about 4,000 (1%) were called active. This list was built around the results that the source calls inconclusive (neither active nor inactive); the mix of calls is not that of the screen. The call rests on the fitted dose curve; in most records, active means well fitted inhibition curve with a large enough effect; inconclusive means small, poorly fitted or top-dose-only effect, or another doubt; inactive means no such curve, though single readings can be large or run the other way. Where the call is inconclusive, the potency comes from a doubtful curve fit.

Chains of the proteins cited; added tags and fusions are not shown. Lines headed by an entry give the natural chain unless they say otherwise; changes in a name come on top.
UniProt Q9UNA4: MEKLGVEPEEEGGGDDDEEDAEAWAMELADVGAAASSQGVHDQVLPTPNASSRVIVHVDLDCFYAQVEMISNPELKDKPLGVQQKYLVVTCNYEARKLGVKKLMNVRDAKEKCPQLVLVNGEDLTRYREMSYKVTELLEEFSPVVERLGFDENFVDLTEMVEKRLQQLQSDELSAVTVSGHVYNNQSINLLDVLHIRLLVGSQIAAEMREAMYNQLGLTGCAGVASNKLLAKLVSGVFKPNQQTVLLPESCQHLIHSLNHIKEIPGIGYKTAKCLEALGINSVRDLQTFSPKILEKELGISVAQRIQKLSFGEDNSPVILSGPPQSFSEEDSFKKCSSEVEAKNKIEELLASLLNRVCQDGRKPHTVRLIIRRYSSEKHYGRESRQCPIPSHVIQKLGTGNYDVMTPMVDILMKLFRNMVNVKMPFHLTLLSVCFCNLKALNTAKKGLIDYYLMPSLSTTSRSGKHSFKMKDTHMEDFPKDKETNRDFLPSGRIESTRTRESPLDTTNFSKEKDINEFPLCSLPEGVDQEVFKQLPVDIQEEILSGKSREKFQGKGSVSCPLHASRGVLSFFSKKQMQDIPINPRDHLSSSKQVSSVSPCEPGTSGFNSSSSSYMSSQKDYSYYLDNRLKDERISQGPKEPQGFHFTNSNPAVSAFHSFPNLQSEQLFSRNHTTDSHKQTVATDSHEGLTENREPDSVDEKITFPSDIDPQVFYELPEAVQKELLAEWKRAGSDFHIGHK

Molecular target: DNA polymerase iota (Homo sapiens) (UniProt Q9UNA4)
Assay: qHTS for Inhibitors of Polymerase Iota
Details: Pol iota fluorescent replication assay, 10 min; series mostly up to 115 µM
How it was run: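 Pol iota at 10 nM preincubated 15 min with compounds at room temperature; reaction started with fluorescent substrate, 50 nM final. Fluorescence read kinetically at 0 and 10 min; buffer-only wells as negative control.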
Potency means the concentration at half of the fitted maximal effect.

| SMILES | Potency |
| --- | --- |
| O=C1CC(C(=O)Nc2ncccn2)C(c2ccccc2)O1 (stereo not drawn) | inconclusive: 89.1 µM [inhibitor, single point] |
| CCOC(=O)c1cc(-c2ccccc2)n(CCCC(=O)Nc2ccc(C(C)C)cc2)c1C | inconclusive: 79.4 µM [inhibitor, single point] |
| CCn1c(=O)n(CC)c2cc(S(=O)(=O)Nc3c(C)cccc3C)ccc21 | inconclusive: 14.1 µM [inhibitor, full curve, poor fit] |
| COc1cccc(OCCNC(=O)c2ccc(C)cc2)c1 | inconclusive: 39.8 µM [inhibitor, single point] |
| CCN1C(=NCc2cccc(Cl)c2)N[C@@H](c2cccc(C(F)(F)F)c2)C(C(=O)OC)=C1C | inconclusive: 89.1 µM [inhibitor, single point] |
| N=c1c2c(n(Cc3ccc([N+](=O)[O-])cc3)c3c1CCC3)CCCC2 | inconclusive: 3.16 µM [inhibitor, single point] |
| CC(C)CCNC(=O)[C@H](CSCc1ccccc1)N1Cc2ccccc2C1=O | inconclusive: 56.2 µM [inhibitor, partial curve, poor fit] |
| COc1cc(NC(=O)c2ccc3c(SCC(=O)O)c4c(nc3c2)CCC4)cc(OC)c1OC | inconclusive: 56.2 µM [inhibitor, partial curve, poor fit] |
| C=CCn1c(SCC(=O)NCCCC)nc2scc(-c3ccco3)c2c1=O | active: 20 µM |
| COc1ccc(-c2cc(OC(=O)c3ccc(Cl)cc3)c3c(C)oc(C)c3c(=O)c2)cc1 | inconclusive: 15.8 µM [inhibitor, full curve, poor fit] |
| COc1cc(C2C(C(=O)Nc3ccccc3OC)=C(C)Nc3ncnn32)ccc1O (stereo not drawn) | inconclusive: 79.4 µM [inhibitor, single point] |
| C[C@H]1CN=C(Nc2ccccc2)N1CCc1ccc(F)cc1 | inconclusive: 14.1 µM [inhibitor, partial curve, poor fit] |
| CC1=NN(c2ccccc2)C(=O)/C1=C\c1sccc1C | inconclusive: 3.98 µM [inhibitor, full curve, poor fit] |
| COc1cc(/C=C2/NC(=O)N(CC(=O)Nc3cccc(C)c3)C2=O)ccc1OCC(N)=O | inconclusive: 3.16 µM [inhibitor, single point] |
| CCc1cccc2c1NC1(CCCC1)CC2C (stereo not drawn) | inconclusive: 56.2 µM [inhibitor, partial curve, poor fit] |
| O/C(=C\c1ccc2ccccc2n1)c1ccncc1 | inconclusive: 28.2 µM [inhibitor, partial curve, poor fit] |
| O=C(O)CCCCCN1C(=O)/C(=C\c2ccncc2)SC1=S | inconclusive: 17.8 µM [inhibitor, full curve, poor fit] |
| CCc1ccccc1NC(=O)c1ccc2c(O)c(S(=O)(=O)c3ccccc3)c(=O)[nH]c2c1 | inconclusive: 28.2 µM [inhibitor, single point] |
| COc1ccc(NC(=O)c2cc3nc(-c4ccc(C)c(C)c4)cc(C(F)(F)F)n3n2)cc1 | inconclusive: 79.4 µM [inhibitor, single point] |
| O=C(CCl)c1cc2c3c(c1)CC(=O)N3CCC2 | inconclusive: 28.2 µM [inhibitor, partial curve, poor fit] |
| CCN(c1cccc2ccccc12)S(=O)(=O)c1cccs1 | inconclusive: 39.8 µM [inhibitor, partial curve, poor fit] |

A draw from above in order of SMILES length, smallest number first.

| SMILES | Potency |
| --- | --- |
| O=C(O)CCCCCN1C(=O)/C(=C\c2ccncc2)SC1=S | inconclusive: 17.8 µM [inhibitor, full curve, poor fit] |
| CC(C)CCNC(=O)[C@H](CSCc1ccccc1)N1Cc2ccccc2C1=O | inconclusive: 56.2 µM [inhibitor, partial curve, poor fit] |
| COc1ccc(NC(=O)c2cc3nc(-c4ccc(C)c(C)c4)cc(C(F)(F)F)n3n2)cc1 | inconclusive: 79.4 µM [inhibitor, single point] |

More results follow.

| SMILES | Potency |
| --- | --- |
| O=C(O)COc1ccccc1C1C2C(=O)N(c3ccccc3)C(=O)C2ON1c1ccccc1 (stereo not drawn) | inconclusive: 25.1 µM [inhibitor, partial curve, poor fit] |
| CCC1CCCCN1S(=O)(=O)c1ccc(C(=O)Nc2sc3c(c2C(=O)NC)CCC3)cc1 (stereo not drawn) | inactive |
| N#Cc1nc(Cc2ccccc2)oc1N1CCCC1 | inconclusive: 39.8 µM [inhibitor, single point] |
| O=C(Nc1nnc(S(=O)(=O)N2CCOCC2)s1)c1ccccc1 | inconclusive: 50.1 µM [inhibitor, partial curve, poor fit] |
| CCc1cc2c(=O)n(Cc3ccco3)c(SCc3c(C)noc3C)nc2s1 | active: 14.1 µM |
| O=C(NC1CCCCC1)NC1(C(=O)NCCCN2CCOCC2)CCCCC1 | inconclusive: 8.91 µM [inhibitor, single point] |
| O=C(CSc1nccn1-c1ccc(F)cc1)Nc1ccc(OC(F)(F)F)cc1 | inactive |
| CCOC(=O)c1c(C)oc2ccc(NS(=O)(=O)c3ccc4c5c(cccc35)C(=O)N4)cc12 | inconclusive: 44.7 µM [inhibitor, partial curve, poor fit] |
| Cc1ccc2c(N)c(C)ccc2c1 | inactive |
| O=C(O)c1cc(-c2ccc(/C=N/Nc3ccc(Cl)cc3)o2)ccc1Cl | inconclusive: 15.8 µM [inhibitor, partial curve, poor fit] |
| COc1cc2c(cc1OC)C(COc1ccc3c(C)cc(=O)oc3c1)N(C(=O)c1ccc(Cl)cc1)CC2 (stereo not drawn) | inconclusive: 79.4 µM [inhibitor, partial curve, poor fit] |
| O=C1CN(C(=O)c2ccccc2C(F)(F)F)C(c2ccccc2)c2cc(F)ccc2N1 (stereo not drawn) | inactive |
| CCOC(=O)N1CCN(C(=O)c2cnn3ccccc23)CC1 | inconclusive: 0.708 µM [inhibitor, full curve, poor fit] |
| COc1ccc(OC)c(NC(=O)CSC2=Nc3ccccc3C3=NC(CC(=O)NCc4ccc5c(c4)OCO5)C(=O)N23)c1 (stereo not drawn) | inconclusive: 4.47 µM [inhibitor, full curve, poor fit] |
| CCN(CC)C(=S)Oc1c(Cl)cccc1Cl | inconclusive: 63.1 µM [inhibitor, single point] |
| COCCCNc1nc(N)c([N+](=O)[O-])c(Nc2cc(OC)ccc2OC)n1 | inactive |
| O=C(Nc1ccc(-c2nnco2)cc1)c1ccccc1 | inconclusive: 100 µM [inhibitor, single point] |
| CCOCC(=O)N1CCc2ccccc21 | inconclusive: 100 µM [inhibitor, partial curve, poor fit] |
| O=c1[nH]c(NC2CCCCC2)nnc1Cc1ccccc1 | inconclusive: 10 µM [inhibitor, partial curve, poor fit] |
| Cc1ccc([C@@H]2CC=C(C(=O)O)[C@H](c3ccc(C(C)(C)C)cc3)N2S(=O)(=O)c2ccc(C)cc2)cc1 | inconclusive: 44.7 µM [inhibitor, partial curve, poor fit] |
| O=C(Nc1ccnn1C1CCN(Cc2c[nH]c3ccccc23)CC1)c1ccccc1 | inactive |

| SMILES | Potency |
| --- | --- |
| Cc1cc(NC(=O)CSc2nnc(-c3cccnc3)n2N)no1 | inconclusive: 25.1 µM [inhibitor, full curve, poor fit] |
| O=C(NCc1ccco1)c1cc2c(s1)CCCCC2 | inconclusive: 22.4 µM [inhibitor, full curve] |
| CCC(Sc1nc2ccccc2[nH]1)C(=O)Nc1cc(C)on1 (stereo not drawn) | inconclusive: 25.1 µM [inhibitor, partial curve, poor fit] |
| COC(=O)C1=C(C)NC(C)=C(C(=O)OC)C1c1ccc(OC(=O)c2ccco2)cc1 | inconclusive: 1.58 µM [inhibitor, partial curve, poor fit] |
| O=C1NC(=S)SC1=Cc1ccc(Cl)cc1 | inconclusive: 25.1 µM [inhibitor, full curve, poor fit] |
| CCOc1ccc(C2CC(c3cccc(OC)c3OC)n3nnnc3N2)cc1Cl (stereo not drawn) | inconclusive: 6.31 µM [inhibitor, full curve, poor fit] |
| CCC(C)[C@H]1CNCCN1CC1(c2ccccc2)CC1 (stereo partly drawn) | inconclusive: 39.8 µM [inhibitor, single point] |
| CC(C)c1ccc(Nc2nc(Nc3ccc(Cl)cc3)nc(N3CCOCC3)n2)cc1 | inactive |
| O=C(COC(=O)COc1ccccc1)Nc1ccc2c(c1)OCCO2 | inactive |
| CCCCN1C(=O)CN(C2CCCCCC2)C(=O)C1c1ccc(OCCC)c(OC)c1 (stereo not drawn) | inactive |
| Cc1ccc(NC(=O)CN2C(=O)S/C(=C/c3ccc(O)c([N+](=O)[O-])c3)C2=O)cc1C | active: 20 µM |
| Cc1nc2ccc(NS(=O)(=O)c3ccc(F)c(F)c3)cc2s1 | inconclusive: 12.6 µM [inhibitor, partial curve, poor fit] |
| Cc1[nH]c(C)c(C(=O)/C=C/c2ccc([N+](=O)[O-])cc2)c1C | inconclusive: 44.7 µM [inhibitor, partial curve, poor fit] |
| Cc1c(Cl)ccc2c(C(=O)O)cc(-c3ccccc3)nc12 | inconclusive: 79.4 µM [inhibitor, partial curve] |
| Cc1ccc(C(=O)OCC(=O)c2ccc[nH]2)s1 | inconclusive: 89.1 µM [inhibitor, single point] |
| COc1cc(-c2ccno2)ccc1S(=O)(=O)N1CCN(c2ccc(C(C)=O)cc2)CC1 | inactive |
| CCOC(=O)C1=C(N)n2c(s/c(=C/c3ccco3)c2=O)=C(C(=O)OC)C1c1ccco1 (stereo not drawn) | inconclusive: 0.891 µM [inhibitor, full curve, poor fit] |
| CC(=O)N(CCC(Cc1ccccc1)c1ccco1)Cc1ccco1 (stereo not drawn) | inconclusive: 31.6 µM [inhibitor, full curve] |
| Cc1cc(C)cc(N2CCn3c2nc2c3c(=O)n(CCCc3ccccc3)c(=O)n2C)c1 | inactive |
| CC(=O)c1ccc(S(=O)(=O)NC2CCSc3ccccc32)cc1 (stereo not drawn) | inconclusive: 39.8 µM [inhibitor, single point] |
| O=C(Nn1cnc2ccccc2c1=O)c1c(F)cccc1F | inconclusive: 70.8 µM [inhibitor, partial curve, poor fit] |
